Counter-ions that a name gives are not always drawn. Some results were stated once for a whole list of compounds, not compound by compound.
target: recombinant human PLA2-VIIB (Homo sapiens, UniProt Q99487); assay: (2b) Alternative PLA2 VIIB assay (2-thio-PAF substrate); assay type: biochemical; settings: Examples 266-412 were tested here

Selectivity between human recombinant Lp-PLA2 and PLA2 VIIB, at least 100 fold:
Cc1ccc(Oc2c(F)cc(COc3cc4n(c(=O)n3)CC3(COC3)N4C)cc2C#N)cn1 [Example 399, 3-Fluoro-5-(((1-methyl-5-oxo-3,5-dihydro-1H-spiro[imidazo[1,2-c]pyrimidine-2,3′-oxetan]-7-yl)oxy)methyl)-2-((6-methylpyridin-3-yl)oxy)benzonitrile]
Cc1ccc(Oc2c(F)cc(COc3cc4n(c(=O)n3)CC3(COC3)N4C)cc2F)cn1 [Example 400, 7-((3,5-Difluoro-4-((6-methylpyridin-3-yl)oxy)benzyl)oxy)-1-methyl-1H-spiro[imidazo[1,2-c]pyrimidine-2,3′-oxetan]-5(3H)-one]
O=c1nc(OCc2cc(F)c(Oc3cncc(C(F)(F)F)c3)c(F)c2)cc2n1CC1(CCOCC1)N2 [Example 401, 7-((3,5-Difluoro-4-((5-(trifluoromethyl)pyridin-3-yl)oxy)benzyl)oxy)-2′,3′,5′,6′-tetrahydro-1H-spiro[imidazo[1,2-c]pyrimidine-2,4′-pyran]-5(3H)-one]
O=c1nc(OCc2ccc(F)c(F)c2)cc2n1CC1(CCOCC1)N2 [Example 402, 7-((3,4-Difluorobenzyl)oxy)-2′,3′,5′,6′-tetrahydro-1H-spiro[imidazo[1,2-c]pyrimidine-2,4′-pyran]-5(3H)-one]
Cc1ccc(Oc2c(F)cc(COc3cc4n(c(=O)n3)CC3(CCOCC3)N4)cc2F)cn1 [Example 403, 7-((3,5-Difluoro-4-((6-methylpyridin-3-yl)oxy)benzyl)oxy)-2′,3′,5′,6′-tetrahydro-1H-spiro[imidazo[1,2-c]pyrimidine-2,4′-pyran]-5(3H)-one]
Cc1ccc(Oc2c(F)cc(COc3cc4n(c(=O)n3)CC3(CCOCC3)N4C)cc2F)cn1 [Example 405, 7-((3,5-Difluoro-4-((6-methylpyridin-3-yl)oxy)benzyl)oxy)-1-methyl-2′,3′,5′,6′-tetrahydro-1H-spiro[imidazo[1,2-c]pyrimidine-2,4′-pyran]-5(3H)-one]
O=c1nc(OCc2ccc(F)c(F)c2)cc2n1CC1(CCN(S(=O)(=O)C3CC3)CC1)N2 [Example 410, 1′-(Cyclopropylsulfonyl)-7-((3,4-difluorobenzyl)oxy)-1H-spiro[imidazo[1,2-c]pyrimidine-2,4′-piperidin]-5(3H)-one]
O=c1nc(OCc2cc(F)c(Oc3cncc(C(F)(F)F)c3)c(F)c2)cc2n1CC1(CCN(Cc3ccccc3)CC1)N2 [Example 411, 1′-Benzyl-7-((3,5-difluoro-4-((5-(trifluoromethyl)pyridin-3-yl)oxy)benzyl)oxy)-1H-spiro[imidazo[1,2-c]pyrimidine-2,4′-piperidin]-5(3H)-one]
N#Cc1cc(COc2cc3n(c(=O)n2)CC2(CCN(Cc4ccccc4)CC2)N3)ccc1F [Example 412, 5-(((1′-Benzyl-5-oxo-3,5-dihydro-1H-spiro[imidazo[1,2-c]pyrimidine-2,4′-piperidin]-7-yl)oxy)methyl)-2-fluorobenzonitrile]
N#Cc1cc(COc2cc3n(c(=O)n2)CC2CNCCN32)ccc1F (centres unmarked) [Example E266, 2-Fluoro-5-(((9-oxo-2,3,4,9,11,11a-hexahydro-1H-pyrazino[1′,2′:3,4]imidazo[1,2-c]pyrimidin-7-yl)oxy)methyl)benzonitrile]
O=c1nc(OCc2ccc(Oc3ccnc(C(F)(F)F)c3)c(F)c2)cc2n1CC1CNCCN21 (centres unmarked) [Example E267, 7-((3-Fluoro-4-((2-(trifluoromethyl)pyridin-4-yl)oxy)benzyl)oxy)-3,4,11,11a-tetrahydro-1H-pyrazino[1′,2′:3,4] imidazo [1,2-c]pyrimidin-9(2H)-one]
O=C(O)C(F)(F)F.[2H]C1([2H])C2CNCCN2c2cc(OCc3ccc(F)c(C#N)c3)nc(=O)n21 (centres unmarked) [Example E269, 5-(((11,11-Dideutero-9-oxo-2,3,4,9,11,11a-hexahydro-1H-pyrazino[1′,2′:3,4]imidazo [1,2-c]pyrimidin-7-yl)oxy)methyl)-2-fluorobenzonitrile 2,2,2-trifluoroacetate]
O=c1nc(OCc2cc(F)c(Oc3ccnc(C(F)(F)F)c3)c(F)c2)cc2n1CC1CNCCN21 (centres unmarked) [Example E270, 7-((3,5-Difluoro-4-((2-(trifluoromethyl)pyridin-4-yl)oxy)benzyl)oxy)-3,4,11,11a-tetrahydro-1H-pyrazino[1′,2′:3,4] imidazo [1,2-c]pyrimidin-9(2H)-one]
Cc1ccc(COc2cc3n(c(=O)n2)CC2CNCCN32)cc1C#N (centres unmarked) [Example E271, 2-Methyl-5-(((9-oxo-2,3,4,9,11,11a-hexahydro-1H-pyrazino[1′,2′:3,4]imidazo [1,2-c]pyrimidin-7-yl)oxy)methyl) benzonitrile]
O=c1nc(OCc2cc(F)c(Oc3cncc(C(F)(F)F)c3)c(F)c2)cc2n1CC1CNCCN21 (centres unmarked) [Example E273, 7-((3,5-Difluoro-4-((5-(trifluoromethyl)pyridin-3-yl)oxy)benzyl)oxy)-3,4,11,11a-tetrahydro-1H-pyrazino[1′,2′:3,4] imidazo [1,2-c]pyrimidin-9(2H)-one]
Cc1ccc(Oc2c(F)cc(COc3cc4n(c(=O)n3)CC3CNCCN43)cc2F)cn1 (centres unmarked) [Example E279, 7-((3,5-Difluoro-4-((6-methylpyridin-3-yl)oxy)benzyl)oxy)-3,4,11,11a-tetrahydro-1H-pyrazino[1′,2′:3,4] imidazo [1,2-c]pyrimidin-9(2H)-one]
CCN1CCN2c3cc(OCc4ccc(F)c(C#N)c4)nc(=O)n3CC2C1 (centres unmarked) [Example E280, 5-(((2-Ethyl-9-oxo-2,3,4,9,11,11a-hexahydro-1H-pyrazino[1′,2′:3,4]imidazo[1,2-c]pyrimidin-7-yl)oxy)methyl)-2-fluorobenzonitrile]
CC(=O)N1CCN2c3cc(OCc4ccc(F)c(C#N)c4)nc(=O)n3CC2C1 (centres unmarked) [Example E281, 5-(((2-Acetyl-9-oxo-2,3,4,9,11,11a-hexahydro-1H-pyrazino[1′,2′:3,4]imidazo[1,2-c]pyrimidin-7-yl)oxy)methyl)-2-fluorobenzonitrile, trifluoroacetic Acid Salt]
CCS(=O)(=O)N1CCN2c3cc(OCc4ccc(F)c(C#N)c4)nc(=O)n3CC2C1 (centres unmarked) [Example E283, 5-(((2-(Ethylsulfonyl)-9-oxo-2,3,4,9,11,11a-hexahydro-1H-pyrazino[1,2′:3,4]imidazo[1,2-c]pyrimidin-7-yl)oxy)methyl)-2-fluorobenzonitrile]
CN(C)CC(=O)N1CCN2c3cc(OCc4ccc(F)c(C#N)c4)nc(=O)n3CC2C1 (centres unmarked) [Example E284, 5-(((2-(2-(Dimethylamino)acetyl)-9-oxo-2,3,4,9,11,11a-hexahydro-1H-pyrazino[1,2′:3,4]imidazo[1,2-c]pyrimidin-7-yl)oxy)methyl)-2-fluorobenzonitrile]
[2H]C1([2H])C2CN(C(C)=O)CCN2c2cc(OCc3ccc(F)c(C#N)c3)nc(=O)n21 (centres unmarked) [Example E285, 5-(((2-Acetyl-11,11-dideutero-9-oxo-2,3,4,9,11,11a-hexahydro-1H-pyrazino[1′,2′:3,4]imidazo[1,2-c]pyrimidin-7-yl)oxy)methyl)-2-fluorobenzonitrile]
CS(=O)(=O)N1CCN2c3cc(OCc4ccc(F)c(C#N)c4)nc(=O)n3CC2C1.Cl (centres unmarked) [Example E286, 2-Fluoro-5-(((2-(methylsulfonyl)-9-oxo-2,3,4,9,11,11a-hexahydro-1H-pyrazino[1′,2′:3,4]imidazo[1,2-c]pyrimidin-7-yl)oxy)methyl)benzonitrile hydrochloride]
[2H]C1([2H])C2CN(S(C)(=O)=O)CCN2c2cc(OCc3ccc(F)c(C#N)c3)nc(=O)n21 (centres unmarked) [Example E287, 5-(((11,11-Dideutero-2-(methylsulfonyl)-9-oxo-2,3,4,9,11,11a-hexahydro-1H-pyrazino[1′,2′:3,4]imidazo[1,2-c]pyrimidin-7-yl)oxy)methyl)-2-fluorobenzonitrile]
N#Cc1cc(COc2cc3n(c(=O)n2)CC2CN(C(=O)CCN)CCN32)ccc1F (centres unmarked) [Example E288, 5-(((2-(3-Aminopropanoyl)-9-oxo-2,3,4,9,11,11a-hexahydro-1H-pyrazino[1′,2′:3,4]imidazo[1,2-c]pyrimidin-7-yl)oxy)methyl)-2-fluorobenzonitrile]
CCC(=O)N1CCN2c3cc(OCc4ccc(F)c(C#N)c4)nc(=O)n3CC2C1.O=C(O)C(F)(F)F (centres unmarked) [Example E289, 2-Fluoro-5-(((9-oxo-2-propionyl-2,3,4,9,11,11a-hexahydro-1H-pyrazino[1′,2′:3,4]imidazo[1,2-c]pyrimidin-7-yl)oxy)methyl)benzonitrile 2,2,2-trifluoroacetate]
CC(C)C(=O)N1CCN2c3cc(OCc4ccc(F)c(C#N)c4)nc(=O)n3CC2C1.O=C(O)C(F)(F)F (centres unmarked) [Example E290, 2-Fluoro-5-(((2-isobutyryl-9-oxo-2,3,4,9,11,11a-hexahydro-1H-pyrazino[1′,2′:3,4]imidazo[1,2-c]pyrimidin-7-yl)oxy)methyl)benzonitrile 2,2,2-trifluoroacetate]

Source: patent publication US11999746B2, “Compounds” (GlaxoSmithKline Intellectual Property Development Limited, priority 2014, dated 2024)
